Measured values published in article PMC2980477.
Results are given in words; binding and its absence hold for the method and conditions named. Binding seen in cells or lysates may run through a third protein. Some entries that bind do so weakly or less than the wild type. For part of these data: Tags and fused reporters may be left off the sequences shown. Each block holds one molecule with its values, some of them ahead of it.

Chains of the proteins cited; added tags and fusions are not shown.
UniProt P06239: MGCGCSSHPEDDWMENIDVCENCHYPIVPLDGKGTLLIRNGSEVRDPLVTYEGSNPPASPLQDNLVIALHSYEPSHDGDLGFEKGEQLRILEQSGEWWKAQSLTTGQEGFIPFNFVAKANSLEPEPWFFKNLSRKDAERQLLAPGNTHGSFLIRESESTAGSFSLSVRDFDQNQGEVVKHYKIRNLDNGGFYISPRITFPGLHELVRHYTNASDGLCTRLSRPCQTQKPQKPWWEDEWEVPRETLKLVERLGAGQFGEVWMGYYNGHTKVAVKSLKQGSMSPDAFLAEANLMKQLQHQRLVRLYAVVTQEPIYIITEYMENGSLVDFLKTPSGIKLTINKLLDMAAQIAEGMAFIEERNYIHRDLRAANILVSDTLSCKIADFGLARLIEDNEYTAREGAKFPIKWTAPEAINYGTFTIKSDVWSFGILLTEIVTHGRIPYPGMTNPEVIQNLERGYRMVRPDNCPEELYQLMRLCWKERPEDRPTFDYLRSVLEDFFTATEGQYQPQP
UniProt P43403: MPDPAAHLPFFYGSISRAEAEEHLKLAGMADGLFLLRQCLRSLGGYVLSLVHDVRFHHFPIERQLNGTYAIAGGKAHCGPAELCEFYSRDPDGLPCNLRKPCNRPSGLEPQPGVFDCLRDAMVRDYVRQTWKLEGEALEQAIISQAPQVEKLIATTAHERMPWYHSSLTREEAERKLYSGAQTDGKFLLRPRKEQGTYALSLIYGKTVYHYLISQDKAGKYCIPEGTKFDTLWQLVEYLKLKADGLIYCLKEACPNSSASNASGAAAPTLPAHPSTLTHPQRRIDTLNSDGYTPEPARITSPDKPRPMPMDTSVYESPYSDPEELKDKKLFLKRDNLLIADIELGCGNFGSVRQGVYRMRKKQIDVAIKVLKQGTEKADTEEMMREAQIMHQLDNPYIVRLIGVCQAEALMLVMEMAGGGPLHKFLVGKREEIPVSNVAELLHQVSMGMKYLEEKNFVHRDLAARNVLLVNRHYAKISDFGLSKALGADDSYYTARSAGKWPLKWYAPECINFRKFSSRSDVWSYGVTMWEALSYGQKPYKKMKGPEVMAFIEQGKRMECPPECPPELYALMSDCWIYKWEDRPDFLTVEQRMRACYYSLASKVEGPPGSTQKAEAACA

Key:
[1] = molecular target: CD3ζ (human (endogenous in Jurkat)) (UniProt P20963); test: co-IP; total lysates of Jurkat T cells expressing HA-RhoH and transfected with EGFP, CA-Lck, KD-Lck, AA-ZAP-70 or KA-ZAP-70; IP with anti-ZAP-70, anti-Lck or anti-HA; immunoblot
[2] = molecular target: Lck (human (endogenous in Jurkat)) (UniProt P06239); test: as above
[3] = molecular target: CD3ζ (human (endogenous in Jurkat)) (UniProt P20963); test: co-IP; Jurkat T cells expressing HA-RhoH, stimulated or not with anti-CD3ε antibody, fractionated into cytosol, detergent-soluble and detergent-insoluble membrane fractions; IP with anti-ZAP-70, anti-Lck or anti-CD3ζ; immunoblot
[4] = molecular target: Lck (human (endogenous in Jurkat)) (UniProt P06239); test: as above
ZAP-70 (human) [5] = molecular target: ZAP-70 (human) (UniProt P43403); test: co-IP; total lysates of HEK293 cells transfected with combinations of HA-RhoH, CA-Lck and ZAP-70 or KA-ZAP-70; IP with anti-HA or anti-ZAP-70; immunoblot
[6] = molecular target: ZAP-70 (human (endogenous in Jurkat)) (UniProt P43403); test: co-IP; total lysates of Jurkat T cells expressing HA-RhoH and transfected with EGFP, CA-Lck, KD-Lck, AA-ZAP-70 or KA-ZAP-70; IP with anti-ZAP-70, anti-Lck or anti-HA; immunoblot
ZAP-70 (human) [7] = molecular target: ZAP-70 (human) (UniProt P43403); test: condition: only co-expressed with kinase-dead Lck (KD-Lck); co-IP; total lysates of HEK293 cells co-transfected with HA-RhoH, kinase-dead Lck (KD-Lck) and ZAP-70; IP with anti-ZAP-70 or anti-HA; immunoblot
[8] = molecular target: ZAP-70 (human (endogenous in Jurkat)) (UniProt P43403); test: co-IP; Jurkat T cells expressing HA-RhoH, stimulated or not with anti-CD3ε antibody, fractionated into cytosol, detergent-soluble and detergent-insoluble membrane fractions; IP with anti-ZAP-70, anti-Lck or anti-CD3ζ; immunoblot
[9] = molecular target: Lck (mouse (endogenous in thymocytes and lymph node T cells)), P06240; test: co-IP; total lysates of thymocytes and lymph node T cells of wild type and Rhoh-/- mice, unstimulated or stimulated with anti-CD3/28 Abs for 2 min; IP of Lck, immunoblot for CD3ζ; conditions: remark: other sources report otherwise

- binding [1]: binds
- binding [2]: binds
- binding [3]: binds
- binding [4]: binds
Molecule: ZAP-70 (from UniProt P43403 1-619)

- binding (ZAP-70 (human) [5]): binds
- binding [6]: binds
- binding (ZAP-70 (human) [7]): no binding
- binding [8]: binds
B1: HA-RhoH (protein, UniProt Q15669 1-191)
chain: MLSSIKCVLVGDSAVGKTSLLVRFTSETFPEAYKPTVYENTGVDVFMDGIQISLGLWDTAGNDAFRSIRPLSYQQADVVLMCYSVANHNSFLNLKNKWIGEIRSNLPCTPVLVVATQTDQREMGPHRASCVNAMEGKKLAQDVRAKGYLECSALSNRGVQQVFECAVRTAVNQARRRNRRRLFSINECKIF

- binding [9]: binds
B2: CD3ζ, P24161-1 22-164 (protein)
chain: QSFGLLDPKLCYLLDGILFIYGVIITALYLRAKFSRSAETAANLQDPNQLYNELNLGRREEYDVLEKKRARDPEMGGKQQRRRNPQEGVYNALQKDKMAEAYSEIGTKGERRRGKGHDGLYQGLSTATKDTYDALHMQTLAPR
